PubChem BioAssay AID1224827 – NIAID | 2016
The deposit covers about 3,800 reagents; below is a part drawn at random. About 2,200 of all reagents (57%) were called active. 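Active means a strong reporter change in either direction; calls are per siRNA, not per gene; qiagen siRNAs gave weaker effects.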 Reagents against one gene are numbered here. Not all columns of the deposit are shown.

Purpose: 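Retest primary hits on a TNF reporter with six siRNAs per gene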 (follow-up of hits)
Cell system: RAW264.7 G9 mouse macrophage reporter clone
Knock-down reagent: single siRNA against mouse genes, 100 nM siRNA
Duration: siRNA for 2 days, then LPS about 16 h
Challenge: bacterial lipopolysaccharide (LPS), 10 ng/ml, cells fixed after overnight (about 16 h) stimulation
Measured: 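TNF promoter reporter red fluorescence in nuclei, background subtracted, normalised per plate and to non-targeting control siRNA, as z-scores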
Direction: TNF reporter z-score, mean: higher = stronger Tnf promoter reporter signal; gene median z, three same-vendor siRNAs: higher = stronger Tnf reporter signal for the gene
Active means: 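Active siRNA: replicate-mean z-score of 2 or more, or -2 or less; no calls for control wells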

Fev (FEV transcription factor, ETS family member) #1
- TNF reporter z-score, mean: 2.47
- gene median z, three same-vendor siRNAs: -2.04
- Call: active

Fev (FEV transcription factor, ETS family member) #2
- TNF reporter z-score, mean: -2.04
- gene median z, three same-vendor siRNAs: -2.04
- Call: active

Fev (FEV transcription factor, ETS family member) #3
- TNF reporter z-score, mean: -3.22
- gene median z, three same-vendor siRNAs: -2.04
- Call: active

Fev (FEV transcription factor, ETS family member) #4
- TNF reporter z-score, mean: 3.74
- gene median z, three same-vendor siRNAs: -1.21
- Call: active

Fev (FEV transcription factor, ETS family member) #5
- TNF reporter z-score, mean: -1.21
- gene median z, three same-vendor siRNAs: -1.21
- Call: inactive

Fev (FEV transcription factor, ETS family member) #6
- TNF reporter z-score, mean: -3.01
- gene median z, three same-vendor siRNAs: -1.21
- Call: active

Alyref (Aly/REF export factor) #1
- TNF reporter z-score, mean: -1.35
- gene median z, three same-vendor siRNAs: -3.45
- Call: inactive

Alyref (Aly/REF export factor) #2
- TNF reporter z-score, mean: -3.45
- gene median z, three same-vendor siRNAs: -3.45
- Call: active

Alyref (Aly/REF export factor) #3
- TNF reporter z-score, mean: -4.16
- gene median z, three same-vendor siRNAs: -3.45
- Call: active

Alyref (Aly/REF export factor) #4
- TNF reporter z-score, mean: 1.24
- gene median z, three same-vendor siRNAs: -0.662
- Call: inactive

Alyref (Aly/REF export factor) #5
- TNF reporter z-score, mean: 0.199
- gene median z, three same-vendor siRNAs: -0.662
- Call: inactive

Alyref (Aly/REF export factor) #6
- TNF reporter z-score, mean: -2.36
- gene median z, three same-vendor siRNAs: -0.662
- Call: active

As entered above.
Fev (FEV transcription factor, ETS family member) #2, gene median z, three same-vendor siRNAs = -2.04
Entry for Alyref (Aly/REF export factor) #2 in “Call”: active
